This is one part of the list. Small differences around the control level are noise.

Chains of the proteins cited; added tags and fusions are not shown. Lines headed by an entry give the natural chain unless they say otherwise; changes in a name come on top.
UniProt A0JLT2: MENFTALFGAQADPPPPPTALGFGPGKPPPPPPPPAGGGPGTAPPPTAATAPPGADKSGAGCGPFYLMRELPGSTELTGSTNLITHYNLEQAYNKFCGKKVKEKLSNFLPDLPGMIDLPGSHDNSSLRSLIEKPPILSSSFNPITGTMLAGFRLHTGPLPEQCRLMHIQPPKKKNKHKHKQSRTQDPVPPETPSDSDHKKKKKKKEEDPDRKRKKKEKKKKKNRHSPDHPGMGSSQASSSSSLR
UniProt A6NHG4: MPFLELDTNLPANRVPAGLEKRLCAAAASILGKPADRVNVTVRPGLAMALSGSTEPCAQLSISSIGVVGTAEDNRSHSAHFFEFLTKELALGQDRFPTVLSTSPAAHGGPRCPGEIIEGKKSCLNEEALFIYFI

Compound in the test: Cc1nc(Nc2ncc(C(=O)Nc3c(C)cccc3Cl)s2)cc(N2CCN(CCO)CC2)n1 [dasatinib]
The test is described as follows: log2 fold change of tryptic peptide abundance, ligand vs vehicle (limited proteolysis) (log2 ratio); higher = more trypsin-susceptible (destabilized). Particulars: ligand concentration: 5 uM; sample: K562 cleared lysate.
In the case of “A0A8I5KQE6 (peptide sequence: LLVVTDPR, peptide start residue: 121), A0A8I5KQE6”, the log2 fold change is -0.157.

On to “A0AVK6 (peptide sequence: DSTDATTEK, peptide start residue: 557)”, for which the log2 fold change is -0.404.

Take “MED19 (peptide sequence: TQDPVPPETPSDSDHK, peptide start residue: 184) (UniProt A0JLT2)”: the log2 fold change is 0.549.

In the case of “DDTL (peptide sequence: SHSAHFFEFLTK, peptide start residue: 76) (UniProt A6NHG4)”, the log2 fold change was found to be 0.135.

Regarding “A0A8V8TLL3 (peptide sequence: EAVVLGAAPAPR, peptide start residue: 203)”, the log2 fold change came out at 0.726.

Values taken from the supplement of paper PMC12819154, “High-throughput peptide-centric local stability assay extends protein–ligand identification to membrane proteins, tissues and bacteria” (Nature Structural & Molecular Biology, 2025).
